# Values quoted from earlier work, collected in US8389560B2, “HCV protease inhibitors” (TaiGen Biotechnology Co., Ltd., priority 2009, dated 2013).
# Some of these results come from one statement about several compounds together.
# Tested on: HCV
# Details: HCV patients
substance,measurement,value
interferon-α,sustained response rates,< 50%
